This is an account of results in PMC11672271.

Amino acid sequences for entries named in this document (tags omitted). A change or cut given only in a name is not applied to a line headed by its entry. Chains listed by the source or under a name are the forms on record and can include a tag or linker. Residues count along the entry.
UniProt P42227: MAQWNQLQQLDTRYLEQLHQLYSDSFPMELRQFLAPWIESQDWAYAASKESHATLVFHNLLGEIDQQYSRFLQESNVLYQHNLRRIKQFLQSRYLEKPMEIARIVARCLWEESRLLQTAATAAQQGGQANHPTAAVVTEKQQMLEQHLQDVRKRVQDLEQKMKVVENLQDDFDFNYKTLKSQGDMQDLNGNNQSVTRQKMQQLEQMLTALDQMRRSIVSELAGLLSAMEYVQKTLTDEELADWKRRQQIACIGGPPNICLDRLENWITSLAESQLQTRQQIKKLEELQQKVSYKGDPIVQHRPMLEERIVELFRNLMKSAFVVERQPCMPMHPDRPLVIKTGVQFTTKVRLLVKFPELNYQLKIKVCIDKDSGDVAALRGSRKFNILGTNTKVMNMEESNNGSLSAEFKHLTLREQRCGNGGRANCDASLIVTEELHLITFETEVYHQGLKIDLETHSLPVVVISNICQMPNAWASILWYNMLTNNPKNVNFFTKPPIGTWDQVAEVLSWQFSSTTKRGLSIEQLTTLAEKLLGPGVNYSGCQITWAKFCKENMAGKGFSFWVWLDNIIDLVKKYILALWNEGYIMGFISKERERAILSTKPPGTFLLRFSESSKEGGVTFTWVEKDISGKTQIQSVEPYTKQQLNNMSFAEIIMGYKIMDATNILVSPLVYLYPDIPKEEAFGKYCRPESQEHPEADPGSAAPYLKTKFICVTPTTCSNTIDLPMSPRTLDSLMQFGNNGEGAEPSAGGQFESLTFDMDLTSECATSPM
N-terminal domain of STAT3 (1-355), as used in Figure 3D: residues 1-355 of P42227
STAT3-K177K180R (P42227, form named): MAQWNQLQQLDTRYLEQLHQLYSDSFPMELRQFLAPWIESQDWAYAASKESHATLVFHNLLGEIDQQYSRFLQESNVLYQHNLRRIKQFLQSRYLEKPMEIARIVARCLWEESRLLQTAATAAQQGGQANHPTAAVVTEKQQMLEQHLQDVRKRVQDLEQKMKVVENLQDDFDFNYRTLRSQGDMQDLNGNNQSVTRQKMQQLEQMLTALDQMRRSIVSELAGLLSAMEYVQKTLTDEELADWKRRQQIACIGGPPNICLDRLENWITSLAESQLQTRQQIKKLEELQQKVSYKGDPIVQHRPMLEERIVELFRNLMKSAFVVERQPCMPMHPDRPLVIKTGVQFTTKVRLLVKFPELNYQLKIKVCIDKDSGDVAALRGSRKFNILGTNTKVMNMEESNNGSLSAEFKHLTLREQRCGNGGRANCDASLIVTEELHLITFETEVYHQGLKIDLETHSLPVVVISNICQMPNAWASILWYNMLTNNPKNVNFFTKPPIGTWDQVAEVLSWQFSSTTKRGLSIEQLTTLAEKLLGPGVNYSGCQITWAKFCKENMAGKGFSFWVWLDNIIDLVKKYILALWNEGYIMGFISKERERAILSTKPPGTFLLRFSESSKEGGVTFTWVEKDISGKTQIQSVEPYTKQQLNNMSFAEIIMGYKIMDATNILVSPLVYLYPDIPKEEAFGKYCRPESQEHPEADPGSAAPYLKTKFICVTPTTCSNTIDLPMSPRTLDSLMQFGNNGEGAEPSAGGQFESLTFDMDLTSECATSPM
UniProt A6H5Z3: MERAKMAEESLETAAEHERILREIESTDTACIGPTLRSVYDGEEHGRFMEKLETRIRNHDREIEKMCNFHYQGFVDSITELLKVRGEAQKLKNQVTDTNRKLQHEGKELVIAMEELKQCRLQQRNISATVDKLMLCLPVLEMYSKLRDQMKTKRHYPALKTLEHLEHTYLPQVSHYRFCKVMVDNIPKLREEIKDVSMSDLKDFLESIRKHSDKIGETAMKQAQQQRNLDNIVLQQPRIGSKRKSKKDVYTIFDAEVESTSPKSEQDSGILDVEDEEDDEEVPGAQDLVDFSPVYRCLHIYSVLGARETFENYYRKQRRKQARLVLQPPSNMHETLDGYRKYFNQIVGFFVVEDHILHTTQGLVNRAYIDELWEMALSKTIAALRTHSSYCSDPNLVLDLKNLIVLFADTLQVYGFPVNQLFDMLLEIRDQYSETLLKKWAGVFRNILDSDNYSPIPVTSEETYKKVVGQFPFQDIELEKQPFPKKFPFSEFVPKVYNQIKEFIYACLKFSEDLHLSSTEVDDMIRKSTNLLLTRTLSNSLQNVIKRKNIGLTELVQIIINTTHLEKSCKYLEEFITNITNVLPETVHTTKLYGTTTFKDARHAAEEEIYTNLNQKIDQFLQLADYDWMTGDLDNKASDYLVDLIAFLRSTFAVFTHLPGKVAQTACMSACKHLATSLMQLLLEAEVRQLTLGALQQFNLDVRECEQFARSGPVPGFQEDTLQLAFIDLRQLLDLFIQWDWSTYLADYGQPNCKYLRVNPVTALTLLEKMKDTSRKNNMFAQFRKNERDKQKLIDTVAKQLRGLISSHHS

In assay [1] the target is Myc-STAT3 full length (FL) (UniProt P42227). The assay can be described thus: co-IP; Myc-STAT3 and Flag-Sec15b co-transfected in HEK293T, cells pretreated with brefeldin A (BFA) as indicated; Western blot.
For assay [2] the target is unchanged. Kind of assay: co-IP; Myc-STAT3 and Flag-Sec15b co-transfected in HEK293T, without BFA; Western blot; precipitating antibody not told.
In the next assay the target is STAT3-R31K (UniProt P42227). The assay can be described thus: co-IP; STAT3 mutants co-transfected with Flag-Sec15b in HEK293T; anti-Myc immunoprecipitates, Western blot. (In general: In western blotting, separated proteins are transferred to a membrane and probed.)
The target in a further assay is STAT3-K177K180R (UniProt P42227). The assay is described as above.
Another assay addresses STAT3-C108G (UniProt P42227). Described as above.
The target in a further assay is STAT3-Y293F (UniProt P42227). The assay is described as above.
The next assay addresses Flag-Sec15b (UniProt A6H5Z3). Kind of assay: co-IP; Myc-STAT3 full length or fragments co-transfected with Flag-Sec15b in HEK293T; anti-Flag immunoprecipitates, Western blot.
In assay [3] the target is N-terminal domain of STAT3 (1-355), as used in Figure 3D (UniProt P42227). The assay can be described thus: co-IP; N-terminal domains of STAT3 (1-355) and Sec15b (1-374) transfected into HEK293T; interaction checked by Western blot; tags and precipitating antibody not told.
The target of assay [4] is STAT3 (endogenous, CGR8 mESC) (mouse (endogenous in CGR8 mESC)) (UniProt P42227). Kind of assay: co-IP; endogenous STAT3 and Sec15b in CGR8 mESC after LIF withdrawal for indicated times; Western blot.
The target is the same in assay [5]. Kind of assay: co-IP; endogenous STAT3 and Sec15b in CGR8 mESC maintained in LIF; also after monensin (MNS) treatment (interaction rose with dose, peak at 2 h); Western blot.

No constants are given. Whether binding was seen depends on the method and setting. In cells and extracts the contact can be indirect. Some binding calls cover weakened binding; strength is not graded here.

Take Flag-Sec15b (from UniProt A6H5Z3 1-810): the binding entry is “no binding (condition: pretreatment of the cells with BFA)” in assay [1]; “binds” in [2]; “binds” in the assay with STAT3-R31K; “binds” with STAT3-K177K180R; “binds” in the assay with STAT3-C108G; “binds” with STAT3-Y293F.

For “Myc-STAT3 ND domain (1-130) (from UniProt P42227 1-130) (domain or fragment)”, the binding result in the assay with Flag-Sec15b is on record as “no binding”.

As to “Myc-STAT3 ND-CCD domain (1-355) (from UniProt P42227 1-355) (domain or fragment)”, the binding result with Flag-Sec15b is reported as “binds”.

Take “N-terminal domain (1-374) of Sec15b (from UniProt A6H5Z3 1-374) (domain or fragment)”: the binding result in assay [3] is reported as “binds”.

For the substance “Sec15b (endogenous, CGR8 mESC) (from UniProt A6H5Z3 1-810)”, the binding entry is listed as “no binding (condition: LIF withdrawal from the medium)” in assay [4] and “binds” in assay [5].
